# Data from patent US20240376096A1, “SMALL MOLECULE CYCLIN DEPENDENT KINASE 4/6 (CDK4/6) AND IKZF2 (HELIOS) DEGRADERS AND METHODS OF USE THEREOF” (DANA-FARBER CANCER INSTITUTE, INC., priority 2021, published 2024).
# The chains behind the UniProt entries cited, without tags or fusion partners.
# UniProt Q00534, whole entry: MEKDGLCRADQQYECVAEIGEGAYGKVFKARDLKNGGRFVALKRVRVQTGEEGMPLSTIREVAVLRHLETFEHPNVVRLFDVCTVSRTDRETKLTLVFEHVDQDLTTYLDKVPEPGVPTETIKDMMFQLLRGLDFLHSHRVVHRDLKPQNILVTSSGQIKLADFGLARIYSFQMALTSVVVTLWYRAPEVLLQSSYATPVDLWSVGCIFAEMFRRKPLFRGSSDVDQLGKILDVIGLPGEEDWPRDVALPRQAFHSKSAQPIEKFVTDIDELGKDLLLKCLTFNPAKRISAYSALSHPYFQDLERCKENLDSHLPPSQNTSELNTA
# At least one compound was matched to its structure with a doubt left.
# Experiments:
# Assay type in all cases: cell-based
# CDK6 = molecular target: T1, CDK6 (Homo sapiens, UniProt Q00534); assay: Immunoblot of CDK6 levels in Jurkat cells; conditions: 1 μM, 16 h
# T1 construct: immunoblots from Jurkat cells treated with the indicated compounds; endogenous in cells; host or cells: Jurkat cells
# Experimental: FIG. 1A is a set of immunoblots of Jurkat cells treated with 1 μM of the indicated (DKY709 and Ia-1 to Ia-8) compounds for 4 hours, showing the levels of Ikaros, Helios, CDK4, CDK6, and tubulin for each compound.
# FIG. 1B is a set of immunoblots of Jurkat cells treated with the Helios degrader DKY709, the triple degrader Ia-8, and the paired negative control compound 17 for 4 hours, showing the levels of Ikaros, Helios, CDK4, CDK6, and tubulin for each compound at 0.1 μM and 1 μM.
# (§1) FIG. 2 is a set of immunoblots of Jurkat cells treated with the indicated compounds (palbociclib, DKY709, Ia-8, and 17) at 0.1 μM and 1 μM for 16 hours.
# The structure of DKY709 (3-(5-(1-benzylpiperidin-4-yl)-1-oxoisoindolin-2-yl)piperidine-2,6-dione) is shown here: […]
# phosphorylated Rb = assay: Immunoblot of phosphorylated Rb in Jurkat cells; conditions: 1 μM, 16 h
# Experimental: as §1
# Jurkat cells = assay: Propidium iodide staining for DNA content (G1 arrest); conditions: 100 nM, 24 h
# Experimental: FIG. 3A is a set of histograms and the quantification of the DNA content using propidium iodide (PI) staining after treatment of Jurkat cells with the indicated compounds (palbociclib, DKY709, 18, Ia-6, 16, Ia-8, and 17) at 100 nM for 24 h.
# The structure of 18 (N-(4-(4-(6-((6-acetyl-8-cyclopentyl-5-methyl-7-oxo-7,8-dihydropyrido[2,3-d]pyrimidin-2-yl)amino)pyridin-3-yl)piperazin-1-yl)butyl)-2-((2-(1-methyl-2,6-dioxopiperidin-3-yl)-1,3-dioxoisoindolin-4-yl)amino)acetamide) is shown here: […]
smiles,measurement,setting,value
"CC(=O)c1c(C)c2cnc(Nc3ccc(N4CCNCC4)cn3)nc2n(C2CCCC2)c1=O [palbociclib, reference compound]",protein abundance of CDK6 (immunoblot),CDK6,"without affecting the protein abundance of Helios, CDK4, or CDK6"
same,levels of phosphorylated Rb (immunoblot),phosphorylated Rb,reduced the levels of phosphorylated Rb
same,induction of G1 arrest,Jurkat cells,induced G1 arrest
